Test results reported in patent US9392791B2, “Amide compound and use thereof for pest control” (Sumitomo Chemical Company, priority 2012, dated 2016).
Some of these results come from one statement about several compounds together. For at least one compound, name, drawing or mass did not settle the structure.

Experiments:
Assay type in all cases: in vivo
Aphis gossypii [1] = assay: Test Example 2: foot drench of cucumber seedling, later inoculated with Aphis gossypii; conditions: 500 ppm, 5 ml drenched at foot of cucumber seedling, inoculated after 7 days, examined after further 6 days
Aphis gossypii [2] = assay: Test Example 1: spray on cucumber seedling inoculated with Aphis gossypii; conditions: 500 ppm active ingredient, 20 ml sprayed on cucumber seedling, six days after spraying
Nilaparvata lugens [3] = assay: Test Example 3: spray on rice seedling, Nilaparvata lugens larvae released; conditions: 500 ppm, 10 ml sprayed on rice seedling, third-fourth instar larvae, after 6 days
Nilaparvata lugens [4] = assay: Test Example 4: foot drench of rice seedling, Nilaparvata lugens larvae released; conditions: 500 ppm, 5 ml drenched at foot of rice seedling, larvae released after 7 days, examined after further 6 days
Bemisia tabaci = assay: Test Example 5: spray on tomato seedling with hatched Bemisia tabaci larvae; conditions: 500 ppm, 20 ml/cup sprayed on tomato seedling, after 7 days

SMILES	controlling value (Aphis gossypii [1])	controlling value (Aphis gossypii [2])	controlling value (Nilaparvata lugens [3])	controlling value (Nilaparvata lugens [4])	controlling value (Bemisia tabaci)
CCSc1cc(C(F)(F)F)ccc1C(=O)N(C)c1ccc(F)cn1 [compound 45]	≥ 90%				
CC[S+]([O-])c1ccccc1C(=O)N(C)c1ccc(SC(F)(F)F)cn1 (stereo not drawn) [compound 57]	≥ 90%	≥ 90%	≥ 90%	≥ 90%	≥ 90%
CCS(=O)(=O)c1ccccc1C(=O)Nc1ccc(C(F)(F)F)cn1 [M6-4]	≥ 90%	≥ 90%			
CCS(=O)(=O)c1cc(C(F)(F)F)ccc1C(=O)N(C)c1ccc(C(F)(F)F)cn1 [compound 3]				≥ 90%	
CCSc1cccc(SCC)c1C(=O)Nc1ccc(C(F)(F)C(F)(F)F)cn1 [M6-15]		≥ 90%	≥ 90%		
CCS(=O)(=O)c1cc(Br)ccc1C(=O)N(C)c1ccc(C(F)(F)C(F)(F)F)cn1 [compound 44]	≥ 90%	≥ 90%	≥ 90%	≥ 90%	≥ 90%
CCS(=O)(=O)c1cc(C(F)(F)F)ccc1C(=O)Nc1ccc(C(F)(F)C(F)(F)F)cn1 [M6-13]		≥ 90%			
CCS(=O)(=O)c1cc(C(F)(F)F)ccc1C(=O)N(c1ccc(SC(F)(F)F)cn1)C1CC1 [compound 60]		≥ 90%			
CCS(=O)(=O)c1cc(C(F)(F)F)ccc1C(=O)N(C)c1ccc(Cl)cn1 [compound 52]		≥ 90%			
CCS(=O)(=O)c1cc(C(F)(F)F)ccc1C(=O)N(C)c1ccc(Br)cn1 [compound 54]		≥ 90%			
CCSc1ccccc1C(=O)Nc1ccc(C(F)(F)F)cn1 [M6-1]		≥ 90%			
